These results are taken from PMC5993797.

Protein sequences, listed by entry. Tags and fused reporters are not part of them.
UniProt P35637: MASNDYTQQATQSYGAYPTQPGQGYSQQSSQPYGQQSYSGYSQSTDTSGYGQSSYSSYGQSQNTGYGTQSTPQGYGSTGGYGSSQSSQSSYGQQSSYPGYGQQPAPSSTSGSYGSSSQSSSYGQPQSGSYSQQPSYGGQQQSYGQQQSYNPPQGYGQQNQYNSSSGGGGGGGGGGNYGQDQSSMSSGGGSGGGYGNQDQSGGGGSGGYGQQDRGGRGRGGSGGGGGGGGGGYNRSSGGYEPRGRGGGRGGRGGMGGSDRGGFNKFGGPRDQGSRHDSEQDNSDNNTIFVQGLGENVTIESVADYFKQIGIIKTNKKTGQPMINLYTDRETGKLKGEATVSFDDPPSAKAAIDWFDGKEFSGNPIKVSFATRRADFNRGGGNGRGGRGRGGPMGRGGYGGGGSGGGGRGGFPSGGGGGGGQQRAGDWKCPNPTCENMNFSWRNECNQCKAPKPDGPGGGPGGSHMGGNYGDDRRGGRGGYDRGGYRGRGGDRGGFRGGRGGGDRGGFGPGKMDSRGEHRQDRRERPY
UniProt Q01844: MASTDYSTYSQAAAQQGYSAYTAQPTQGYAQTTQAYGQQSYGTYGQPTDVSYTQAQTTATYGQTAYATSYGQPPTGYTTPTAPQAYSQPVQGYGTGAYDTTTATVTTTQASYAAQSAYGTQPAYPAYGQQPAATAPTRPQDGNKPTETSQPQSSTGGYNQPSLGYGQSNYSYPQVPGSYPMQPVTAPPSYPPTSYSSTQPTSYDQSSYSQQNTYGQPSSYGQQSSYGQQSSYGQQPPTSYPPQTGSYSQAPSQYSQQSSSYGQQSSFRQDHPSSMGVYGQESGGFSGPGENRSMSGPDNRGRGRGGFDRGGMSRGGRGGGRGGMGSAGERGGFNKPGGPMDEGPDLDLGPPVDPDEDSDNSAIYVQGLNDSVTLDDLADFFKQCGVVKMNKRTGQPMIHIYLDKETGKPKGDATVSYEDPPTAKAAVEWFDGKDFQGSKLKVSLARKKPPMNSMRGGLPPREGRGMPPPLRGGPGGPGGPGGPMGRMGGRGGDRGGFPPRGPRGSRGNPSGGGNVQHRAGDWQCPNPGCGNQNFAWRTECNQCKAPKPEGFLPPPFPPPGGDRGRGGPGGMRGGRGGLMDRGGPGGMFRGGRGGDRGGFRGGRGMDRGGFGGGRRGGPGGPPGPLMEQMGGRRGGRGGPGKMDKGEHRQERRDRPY
UniProt Q92804: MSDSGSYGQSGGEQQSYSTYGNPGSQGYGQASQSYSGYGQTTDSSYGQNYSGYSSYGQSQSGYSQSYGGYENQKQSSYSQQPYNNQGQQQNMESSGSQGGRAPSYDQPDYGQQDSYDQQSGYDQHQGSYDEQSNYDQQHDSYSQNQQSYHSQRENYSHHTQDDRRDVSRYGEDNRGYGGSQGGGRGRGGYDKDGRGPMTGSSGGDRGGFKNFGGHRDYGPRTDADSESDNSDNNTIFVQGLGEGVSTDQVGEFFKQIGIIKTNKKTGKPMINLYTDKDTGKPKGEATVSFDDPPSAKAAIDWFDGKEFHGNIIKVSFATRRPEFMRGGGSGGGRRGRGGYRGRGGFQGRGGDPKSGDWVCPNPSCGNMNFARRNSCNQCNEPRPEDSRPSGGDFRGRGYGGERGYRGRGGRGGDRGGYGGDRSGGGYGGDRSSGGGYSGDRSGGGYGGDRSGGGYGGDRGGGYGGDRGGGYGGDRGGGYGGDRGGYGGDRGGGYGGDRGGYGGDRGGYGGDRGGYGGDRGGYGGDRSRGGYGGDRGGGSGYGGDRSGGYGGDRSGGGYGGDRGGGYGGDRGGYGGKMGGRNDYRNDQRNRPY
UniProt Q16531: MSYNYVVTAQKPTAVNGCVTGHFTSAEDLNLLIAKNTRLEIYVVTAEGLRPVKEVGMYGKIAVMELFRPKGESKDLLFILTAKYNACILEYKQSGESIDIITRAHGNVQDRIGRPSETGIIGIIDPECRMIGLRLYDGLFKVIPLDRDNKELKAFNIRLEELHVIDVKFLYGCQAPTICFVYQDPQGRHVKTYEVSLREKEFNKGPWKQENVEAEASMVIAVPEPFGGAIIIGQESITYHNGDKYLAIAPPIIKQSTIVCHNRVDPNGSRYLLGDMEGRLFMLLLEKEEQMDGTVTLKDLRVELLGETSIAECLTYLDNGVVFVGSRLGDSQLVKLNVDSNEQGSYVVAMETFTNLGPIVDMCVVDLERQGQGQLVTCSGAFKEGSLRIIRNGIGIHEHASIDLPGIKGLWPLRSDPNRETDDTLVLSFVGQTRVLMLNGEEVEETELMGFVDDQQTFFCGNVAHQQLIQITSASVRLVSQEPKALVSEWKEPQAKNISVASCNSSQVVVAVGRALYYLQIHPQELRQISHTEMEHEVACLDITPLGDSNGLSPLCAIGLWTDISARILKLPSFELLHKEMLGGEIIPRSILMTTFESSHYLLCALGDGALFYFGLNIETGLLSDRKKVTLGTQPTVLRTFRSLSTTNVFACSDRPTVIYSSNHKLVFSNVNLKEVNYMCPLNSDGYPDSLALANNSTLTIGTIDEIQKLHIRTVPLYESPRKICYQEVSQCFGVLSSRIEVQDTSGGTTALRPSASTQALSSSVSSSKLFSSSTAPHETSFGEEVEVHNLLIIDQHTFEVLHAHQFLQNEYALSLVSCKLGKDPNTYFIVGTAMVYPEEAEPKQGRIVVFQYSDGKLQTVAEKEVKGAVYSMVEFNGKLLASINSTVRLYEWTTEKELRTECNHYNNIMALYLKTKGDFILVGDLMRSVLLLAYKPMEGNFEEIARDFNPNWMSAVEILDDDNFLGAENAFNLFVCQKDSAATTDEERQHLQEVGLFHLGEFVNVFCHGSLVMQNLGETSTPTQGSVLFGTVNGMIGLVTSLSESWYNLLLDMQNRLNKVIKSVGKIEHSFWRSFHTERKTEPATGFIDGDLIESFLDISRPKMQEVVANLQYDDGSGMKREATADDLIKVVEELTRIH
UniProt P17844: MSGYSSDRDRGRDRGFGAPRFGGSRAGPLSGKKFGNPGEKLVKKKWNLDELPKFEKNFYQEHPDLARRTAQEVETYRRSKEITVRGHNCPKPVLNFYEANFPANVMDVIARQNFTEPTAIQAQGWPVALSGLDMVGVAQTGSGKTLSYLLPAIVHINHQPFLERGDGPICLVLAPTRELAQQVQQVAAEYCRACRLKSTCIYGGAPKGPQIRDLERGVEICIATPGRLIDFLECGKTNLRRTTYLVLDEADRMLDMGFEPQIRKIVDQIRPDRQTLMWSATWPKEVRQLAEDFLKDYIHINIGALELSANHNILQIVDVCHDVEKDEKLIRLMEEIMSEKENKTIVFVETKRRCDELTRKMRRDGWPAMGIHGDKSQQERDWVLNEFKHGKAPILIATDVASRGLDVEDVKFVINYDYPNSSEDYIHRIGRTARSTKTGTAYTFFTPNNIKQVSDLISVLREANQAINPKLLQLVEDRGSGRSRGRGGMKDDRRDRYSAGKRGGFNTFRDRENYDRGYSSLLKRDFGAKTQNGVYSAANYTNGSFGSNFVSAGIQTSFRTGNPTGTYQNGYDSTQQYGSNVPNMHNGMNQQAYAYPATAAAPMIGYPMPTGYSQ
UniProt P04792: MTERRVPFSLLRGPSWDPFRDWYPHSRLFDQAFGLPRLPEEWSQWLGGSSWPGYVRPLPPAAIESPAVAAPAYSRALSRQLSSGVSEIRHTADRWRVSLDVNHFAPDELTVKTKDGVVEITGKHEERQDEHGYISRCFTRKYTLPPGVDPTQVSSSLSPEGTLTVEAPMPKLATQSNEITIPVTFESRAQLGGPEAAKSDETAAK
UniProt Q14980: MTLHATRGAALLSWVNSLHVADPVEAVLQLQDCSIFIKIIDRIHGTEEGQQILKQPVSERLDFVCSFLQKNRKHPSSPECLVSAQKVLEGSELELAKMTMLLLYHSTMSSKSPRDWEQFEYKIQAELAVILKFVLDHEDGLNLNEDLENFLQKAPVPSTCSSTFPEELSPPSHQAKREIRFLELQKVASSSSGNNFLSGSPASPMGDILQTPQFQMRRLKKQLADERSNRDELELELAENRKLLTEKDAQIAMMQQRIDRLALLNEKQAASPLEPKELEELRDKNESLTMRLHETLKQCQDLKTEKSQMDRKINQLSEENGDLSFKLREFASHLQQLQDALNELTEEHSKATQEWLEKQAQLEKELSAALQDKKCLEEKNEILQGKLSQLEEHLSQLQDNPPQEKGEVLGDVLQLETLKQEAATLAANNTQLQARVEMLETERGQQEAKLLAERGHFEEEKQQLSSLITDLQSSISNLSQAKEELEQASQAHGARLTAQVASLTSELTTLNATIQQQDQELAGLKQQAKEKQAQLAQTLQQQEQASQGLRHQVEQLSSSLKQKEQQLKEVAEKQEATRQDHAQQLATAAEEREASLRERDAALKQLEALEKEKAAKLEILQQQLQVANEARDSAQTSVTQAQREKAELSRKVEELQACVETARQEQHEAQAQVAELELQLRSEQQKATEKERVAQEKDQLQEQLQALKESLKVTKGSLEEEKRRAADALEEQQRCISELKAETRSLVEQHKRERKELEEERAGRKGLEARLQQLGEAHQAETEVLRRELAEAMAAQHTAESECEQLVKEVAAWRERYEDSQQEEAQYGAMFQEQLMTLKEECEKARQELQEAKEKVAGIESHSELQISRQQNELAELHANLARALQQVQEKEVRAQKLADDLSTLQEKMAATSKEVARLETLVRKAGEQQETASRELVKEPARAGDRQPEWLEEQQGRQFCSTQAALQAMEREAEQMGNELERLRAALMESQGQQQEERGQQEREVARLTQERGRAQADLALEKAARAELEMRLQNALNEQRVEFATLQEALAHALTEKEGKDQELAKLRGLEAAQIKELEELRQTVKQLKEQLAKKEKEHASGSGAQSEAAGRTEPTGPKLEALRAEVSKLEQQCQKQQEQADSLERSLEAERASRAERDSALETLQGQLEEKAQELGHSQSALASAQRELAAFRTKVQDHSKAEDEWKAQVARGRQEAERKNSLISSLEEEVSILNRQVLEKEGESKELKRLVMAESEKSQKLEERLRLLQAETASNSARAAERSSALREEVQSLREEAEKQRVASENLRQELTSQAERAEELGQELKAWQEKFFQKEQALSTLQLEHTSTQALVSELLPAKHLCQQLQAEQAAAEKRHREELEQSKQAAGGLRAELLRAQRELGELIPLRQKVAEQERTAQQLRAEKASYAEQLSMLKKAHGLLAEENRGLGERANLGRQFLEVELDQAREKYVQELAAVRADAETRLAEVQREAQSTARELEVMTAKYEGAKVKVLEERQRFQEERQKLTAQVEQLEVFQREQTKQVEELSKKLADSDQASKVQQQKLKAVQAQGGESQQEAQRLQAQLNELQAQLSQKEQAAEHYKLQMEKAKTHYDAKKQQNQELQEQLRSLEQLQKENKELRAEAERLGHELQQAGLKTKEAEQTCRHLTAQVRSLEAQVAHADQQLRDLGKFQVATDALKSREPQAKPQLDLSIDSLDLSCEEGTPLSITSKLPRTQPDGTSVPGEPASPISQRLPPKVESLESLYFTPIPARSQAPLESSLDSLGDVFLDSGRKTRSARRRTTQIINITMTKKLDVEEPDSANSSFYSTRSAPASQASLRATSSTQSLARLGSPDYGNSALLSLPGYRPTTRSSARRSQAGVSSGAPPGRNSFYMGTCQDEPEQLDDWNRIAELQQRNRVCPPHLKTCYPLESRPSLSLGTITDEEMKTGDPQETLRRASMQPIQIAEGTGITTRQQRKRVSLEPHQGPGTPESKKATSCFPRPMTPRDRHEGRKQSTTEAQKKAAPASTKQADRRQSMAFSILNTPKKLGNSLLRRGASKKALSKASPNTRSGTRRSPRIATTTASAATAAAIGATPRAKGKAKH
UniProt P11940: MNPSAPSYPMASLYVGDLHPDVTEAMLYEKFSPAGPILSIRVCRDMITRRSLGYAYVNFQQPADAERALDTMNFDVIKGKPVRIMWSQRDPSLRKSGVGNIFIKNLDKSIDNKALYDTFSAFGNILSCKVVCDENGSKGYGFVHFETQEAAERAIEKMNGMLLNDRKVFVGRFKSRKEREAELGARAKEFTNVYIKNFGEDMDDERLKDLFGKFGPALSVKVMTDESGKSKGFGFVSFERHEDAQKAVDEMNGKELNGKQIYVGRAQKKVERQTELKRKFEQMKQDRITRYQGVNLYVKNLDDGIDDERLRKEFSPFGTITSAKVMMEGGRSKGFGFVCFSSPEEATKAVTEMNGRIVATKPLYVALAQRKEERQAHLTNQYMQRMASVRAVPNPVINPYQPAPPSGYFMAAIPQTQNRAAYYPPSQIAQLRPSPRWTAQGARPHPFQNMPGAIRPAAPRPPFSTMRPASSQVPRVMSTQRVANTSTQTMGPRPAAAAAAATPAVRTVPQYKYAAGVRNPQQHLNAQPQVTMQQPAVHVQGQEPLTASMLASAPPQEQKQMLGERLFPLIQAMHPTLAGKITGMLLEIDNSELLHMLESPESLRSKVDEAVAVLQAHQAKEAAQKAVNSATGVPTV

Where two headings read alike, the source gives them in different places. These are yes or no findings as the source states them, for the method shown. Binding seen in cells or lysates may run through a third protein. These calls come from enrichment with a bait or labelling near it, and not all partners need be listed.

Assay [1] deals with T1, MATR3 (human (endogenous in HeLa)) (UniProt P43243).
T1 sequence: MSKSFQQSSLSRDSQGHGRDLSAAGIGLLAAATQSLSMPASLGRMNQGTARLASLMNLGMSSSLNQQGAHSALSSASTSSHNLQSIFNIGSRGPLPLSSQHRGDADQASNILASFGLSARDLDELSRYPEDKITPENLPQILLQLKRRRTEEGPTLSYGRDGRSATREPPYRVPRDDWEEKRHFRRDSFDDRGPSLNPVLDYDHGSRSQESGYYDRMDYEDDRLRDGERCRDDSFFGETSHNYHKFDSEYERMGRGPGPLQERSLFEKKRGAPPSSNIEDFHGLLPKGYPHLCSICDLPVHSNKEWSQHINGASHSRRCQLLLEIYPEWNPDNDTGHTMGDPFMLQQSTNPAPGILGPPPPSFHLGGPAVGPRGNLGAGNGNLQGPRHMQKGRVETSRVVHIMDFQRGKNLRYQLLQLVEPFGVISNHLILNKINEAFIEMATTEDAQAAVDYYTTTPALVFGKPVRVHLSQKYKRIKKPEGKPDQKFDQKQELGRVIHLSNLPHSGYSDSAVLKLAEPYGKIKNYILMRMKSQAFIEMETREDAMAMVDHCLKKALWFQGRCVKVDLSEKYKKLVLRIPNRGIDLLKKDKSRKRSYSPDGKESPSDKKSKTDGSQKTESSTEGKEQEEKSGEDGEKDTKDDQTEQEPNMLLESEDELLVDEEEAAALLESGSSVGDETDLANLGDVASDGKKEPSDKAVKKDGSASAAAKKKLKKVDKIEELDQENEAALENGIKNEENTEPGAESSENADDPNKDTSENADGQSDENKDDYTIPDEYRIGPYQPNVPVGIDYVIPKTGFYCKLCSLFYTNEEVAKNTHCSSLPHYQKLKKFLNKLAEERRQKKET
The assay is described as follows: affinity purification with mass spectrometry; IPs of FUS, EWSR1, TAF15 or MATR3 from HeLa nuclear extract, TCA precipitated, shotgun mass spectrometry.

For assay [2], the target named is SNRPC subunit of the U1 snRNP (human (endogenous in HeLa)) (UniProt P09234). Put plainly: affinity purification with mass spectrometry; IP of the U1 snRNP machinery from HeLa nuclear extract, TCA precipitated, peptides labelled by tandem mass tag, MS3 on an Orbitrap Fusion.
Assay [3] deals with FUS (human (endogenous in HeLa)) (UniProt P35637). The assay is described as follows: affinity purification with mass spectrometry; IPs of FUS, EWSR1, TAF15 or MATR3 from HeLa nuclear extract, TCA precipitated, shotgun mass spectrometry.
Assay [4] has as its target EWSR1 (human (endogenous in HeLa)) (UniProt Q01844). The assay is described as above.
In assay [5] the target is TAF15 (human (endogenous in HeLa)) (UniProt Q92804). The description is as above.
The target in assay [6] is SNRPC subunit of the U1 snRNP (human (endogenous in HeLa)) (UniProt P09234). The assay is described as follows: affinity purification with mass spectrometry; IP of the U1 snRNP machinery from HeLa nuclear extract, TCA precipitated, peptides labelled by tandem mass tag, MS3 on an Orbitrap Fusion. This is another data set of the same source.

In the case of CAD (from UniProt P27708 1-2225), the binding result in assay [1] is listed as “binds”.

Consider DDB1 (from UniProt Q16531 1-1140), for which the binding result in assay [1] was “binds”.

Turning to DDX5 (from UniProt P17844 1-614), the binding entry in assay [2], in assay [3], in assay [4], in assay [1] and in assay [5] was “binds” in each case.

With EWSR1 (from UniProt Q01844 1-656), in assay [2], the binding result is recorded as “binds”.

Turning to FUS (from UniProt P35637 1-526), the binding entry in assay [2], in assay [4], in assay [1] and in assay [5] was “binds” each time.

HNRNPK (from UniProt P61978 1-463): the binding result in assay [1] is “binds”.

Turning to HSPB1 (from UniProt P04792 1-205), the binding entry in assay [2] is “binds”.

For the molecule NUMA1 (from UniProt Q14980 1-2115), in assay [1], the binding entry is “binds”.

On to PABPC1 (from UniProt P11940 1-636), for which the binding result in assay [5] is “binds”.

Regarding RUVBL1 (from UniProt Q9Y265 1-456), in assay [1], the binding entry is listed as “binds”.

B1: CPSF1 (protein, UniProt Q10570 1-1443)
chain: MYAVYKQAHPPTGLEFSMYCNFFNNSERNLVVAGTSQLYVYRLNRDAEALTKNDRSTEGKAHREKLELAASFSFFGNVMSMASVQLAGAKRDALLLSFKDAKLSVVEYDPGTHDLKTLSLHYFEEPELRDGFVQNVHTPRVRVDPDGRCAAMLVYGTRLVVLPFRRESLAEEHEGLVGEGQRSSFLPSYIIDVRALDEKLLNIIDLQFLHGYYEPTLLILFEPNQTWPGRVAVRQDTCSIVAISLNITQKVHPVIWSLTSLPFDCTQALAVPKPIGGVVVFAVNSLLYLNQSVPPYGVALNSLTTGTTAFPLRTQEGVRITLDCAQATFISYDKMVISLKGGEIYVLTLITDGMRSVRAFHFDKAAASVLTTSMVTMEPGYLFLGSRLGNSLLLKYTEKLQEPPASAVREAADKEEPPSKKKRVDATAGWSAAGKSVPQDEVDEIEVYGSEAQSGTQLATYSFEVCDSILNIGPCANAAVGEPAFLSEEFQNSPEPDLEIVVCSGHGKNGALSVLQKSIRPQVVTTFELPGCYDMWTVIAPVRKEEEDNPKGEGTEQEPSTTPEADDDGRRHGFLILSREDSTMILQTGQEIMELDTSGFATQGPTVFAGNIGDNRYIVQVSPLGIRLLEGVNQLHFIPVDLGAPIVQCAVADPYVVIMSAEGHVTMFLLKSDSYGGRHHRLALHKPPLHHQSKVITLCLYRDLSGMFTTESRLGGARDELGGRSGPEAEGLGSETSPTVDDEEEMLYGDSGSLFSPSKEEARRSSQPPADRDPAPFRAEPTHWCLLVRENGTMEIYQLPDWRLVFLVKNFPVGQRVLVDSSFGQPTTQGEARREEATRQGELPLVKEVLLVALGSRQSRPYLLVHVDQELLIYEAFPHDSQLGQGNLKVRFKKVPHNINFREKKPKPSKKKAEGGGAEEGAGARGRVARFRYFEDIYGYSGVFICGPSPHWLLVTGRGALRLHPMAIDGPVDSFAPFHNVNCPRGFLYFNRQGELRISVLPAYLSYDAPWPVRKIPLRCTAHYVAYHVESKVYAVATSTNTPCARIPRMTGEEKEFETIERDERYIHPQQEAFSIQLISPVSWEAIPNARIELQEWEHVTCMKTVSLRSEETVSGLKGYVAAGTCLMQGEEVTCRGRILIMDVIEVVPEPGQPLTKNKFKVLYEKEQKGPVTALCHCNGHLVSAIGQKIFLWSLRASELTGMAFIDTQLYIHQMISVKNFILAADVMKSISLLRYQEESKTLSLVSRDAKPLEVYSVDFMVDNAQLGFLVSDRDRNLMVYMYLPEAKESFGGMRLLRRADFHVGAHVNTFWRTPCRGATEGLSKKSVVWENKHITWFATLDGGIGLLLPMQEKTYRRLLMLQNALTTMLPHHAGLNPRAFRMLHVDRRTLQNAVRNVLDGELLNRYLYLSTMERSELAKKIGTTPDIILDDLLETDRVTAHF
Consider B1, for which the binding entry in assay [6] is on record as “binds”.

B2: HTATSF1 (protein, UniProt O43719 1-755)
chain: MSGTNLDGNDEFDEQLRMQELYGDGKDGDTQTDAGGEPDSLGQQPTDTPYEWDLDKKAWFPKITEDFIATYQANYGFSNDGASSSTANVEDVHARTAEEPPQEKAPEPTDARKKGEKRKAESGWFHVEEDRNTNVYVSGLPPDITVDEFIQLMSKFGIIMRDPQTEEFKVKLYKDNQGNLKGDGLCCYLKRESVELALKLLDEDEIRGYKLHVEVAKFQLKGEYDASKKKKKCKDYKKKLSMQQKQLDWRPERRAGPSRMRHERVVIIKNMFHPMDFEDDPLVLNEIREDLRVECSKFGQIRKLLLFDRHPDGVASVSFRDPEEADYCIQTLDGRWFGGRQITAQAWDGTTDYQVEETSREREERLRGWEAFLNAPEANRGLRRSDSVSASERAGPSRARHFSEHPSTSKMNAQETATGMAFEEPIDEKKFEKTEDGGEFEEGASENNAKESSPEKEAEEGCPEKESEEGCPKRGFEGSCSQKESEEGNPVRGSEEDSPKKESKKKTLKNDCEENGLAKESEDDLNKESEEEVGPTKESEEDDSEKESDEDCSEKQSEDGSEREFEENGLEKDLDEEGSEKELHENVLDKELEENDSENSEFEDDGSEKVLDEEGSEREFDEDSDEKEEEEDTYEKVFDDESDEKEDEEYADEKGLEAADKKAEEGDADEKLFEESDDKEDEDADGKEVEDADEKLFEDDDSNEKLFDEEEDSSEKLFDDSDERGTLGGFGSVEEGPLSTGSSFILSSDDDDDDI
Turning to B2, the binding result in assay [6] is reported as “binds”.

B3: TIA1 (protein, UniProt P31483 1-386)
chain: MEDEMPKTLYVGNLSRDVTEALILQLFSQIGPCKNCKMIMDTAGNDPYCFVEFHEHRHAAAALAAMNGRKIMGKEVKVNWATTPSSQKKDTSSSTVVSTQRSQDHFHVFVGDLSPEITTEDIKAAFAPFGRISDARVVKDMATGKSKGYGFVSFFNKWDAENAIQQMGGQWLGGRQIRTNWATRKPPAPKSTYESNTKQLSYDEVVNQSSPSNCTVYCGGVTSGLTEQLMRQTFSPFGQIMEIRVFPDKGYSFVRFNSHESAAHAIVSVNGTTIEGHVVKCYWGKETLDMINPVQQQNQIGYPQPYGQWGQWYGNAQQIGQYMPNGWQVPAYGMYGQAWNQQGFNQTQSSAPWMGPNYGVQPPQGQNGSMLPNQPSGYRVAGYETQ
In the case of B3, in assay [6], the binding result was “binds”.

B4: CPSF3 (protein, UniProt Q9UKF6 1-684)
chain: MSAIPAEESDQLLIRPLGAGQEVGRSCIILEFKGRKIMLDCGIHPGLEGMDALPYIDLIDPAEIDLLLISHFHLDHCGALPWFLQKTSFKGRTFMTHATKAIYRWLLSDYVKVSNISADDMLYTETDLEESMDKIETINFHEVKEVAGIKFWCYHAGHVLGAAMFMIEIAGVKLLYTGDFSRQEDRHLMAAEIPNIKPDILIIESTYGTHIHEKREEREARFCNTVHDIVNRGGRGLIPVFALGRAQELLLILDEYWQNHPELHDIPIYYASSLAKKCMAVYQTYVNAMNDKIRKQININNPFVFKHISNLKSMDHFDDIGPSVVMASPGMMQSGLSRELFESWCTDKRNGVIIAGYCVEGTLAKHIMSEPEEITTMSGQKLPLKMSVDYISFSAHTDYQQTSEFIRALKPPHVILVHGEQNEMARLKAALIREYEDNDEVHIEVHNPRNTEAVTLNFRGEKLAKVMGFLADKKPEQGQRVSGILVKRNFNYHILSPCDLSNYTDLAMSTVKQTQAIPYTGPFNLLCYQLQKLTGDVEELEIQEKPALKVFKNITVIQEPGMVVLEWLANPSNDMYADTVTTVILEVQSNPKIRKGAVQKVSKKLEMHVYSKRLEIMLQDIFGEDCVSVKDDSILSVTVDGKTANLNLETRTVECEEGSEDDESLREMVELAAQRLYEALTPVH
Take B4: the binding entry in assay [6] is given as “binds”.

B5: HNRNPR (protein, UniProt O43390 1-633)
chain: MANQVNGNAVQLKEEEEPMDTSSVTHTEHYKTLIEAGLPQKVAERLDEIFQTGLVAYVDLDERAIDALREFNEEGALSVLQQFKESDLSHVQNKSAFLCGVMKTYRQREKQGSKVQESTKGPDEAKIKALLERTGYTLDVTTGQRKYGGPPPDSVYSGVQPGIGTEVFVGKIPRDLYEDELVPLFEKAGPIWDLRLMMDPLSGQNRGYAFITFCGKEAAQEAVKLCDSYEIRPGKHLGVCISVANNRLFVGSIPKNKTKENILEEFSKVTEGLVDVILYHQPDDKKKNRGFCFLEYEDHKSAAQARRRLMSGKVKVWGNVVTVEWADPVEEPDPEVMAKVKVLFVRNLATTVTEEILEKSFSEFGKLERVKKLKDYAFVHFEDRGAAVKAMDEMNGKEIEGEEIEIVLAKPPDKKRKERQAARQASRSTAYEDYYYHPPPRMPPPIRGRGRGGGRGGYGYPPDYYGYEDYYDDYYGYDYHDYRGGYEDPYYGYDDGYAVRGRGGGRGGRGAPPPPRGRGAPPPRGRAGYSQRGAPLGPPRGSRGGRGGPAQQQRGRGSRGSRGNRGGNVGGKRKADGYNQPDSKRRQTNNQQNWGSQPIAQQPLQQGGDYSGNYGYNNDNQEFYQDTYGQQWK
Take B5: the binding result in assay [3], in assay [4], in assay [1] and in assay [5] was “binds” in each case.
